These results are taken from paper PMC4743010.

Sequences of proteins named here, by UniProt entry; tags and fusion partners are left off.
UniProt Q96Q15: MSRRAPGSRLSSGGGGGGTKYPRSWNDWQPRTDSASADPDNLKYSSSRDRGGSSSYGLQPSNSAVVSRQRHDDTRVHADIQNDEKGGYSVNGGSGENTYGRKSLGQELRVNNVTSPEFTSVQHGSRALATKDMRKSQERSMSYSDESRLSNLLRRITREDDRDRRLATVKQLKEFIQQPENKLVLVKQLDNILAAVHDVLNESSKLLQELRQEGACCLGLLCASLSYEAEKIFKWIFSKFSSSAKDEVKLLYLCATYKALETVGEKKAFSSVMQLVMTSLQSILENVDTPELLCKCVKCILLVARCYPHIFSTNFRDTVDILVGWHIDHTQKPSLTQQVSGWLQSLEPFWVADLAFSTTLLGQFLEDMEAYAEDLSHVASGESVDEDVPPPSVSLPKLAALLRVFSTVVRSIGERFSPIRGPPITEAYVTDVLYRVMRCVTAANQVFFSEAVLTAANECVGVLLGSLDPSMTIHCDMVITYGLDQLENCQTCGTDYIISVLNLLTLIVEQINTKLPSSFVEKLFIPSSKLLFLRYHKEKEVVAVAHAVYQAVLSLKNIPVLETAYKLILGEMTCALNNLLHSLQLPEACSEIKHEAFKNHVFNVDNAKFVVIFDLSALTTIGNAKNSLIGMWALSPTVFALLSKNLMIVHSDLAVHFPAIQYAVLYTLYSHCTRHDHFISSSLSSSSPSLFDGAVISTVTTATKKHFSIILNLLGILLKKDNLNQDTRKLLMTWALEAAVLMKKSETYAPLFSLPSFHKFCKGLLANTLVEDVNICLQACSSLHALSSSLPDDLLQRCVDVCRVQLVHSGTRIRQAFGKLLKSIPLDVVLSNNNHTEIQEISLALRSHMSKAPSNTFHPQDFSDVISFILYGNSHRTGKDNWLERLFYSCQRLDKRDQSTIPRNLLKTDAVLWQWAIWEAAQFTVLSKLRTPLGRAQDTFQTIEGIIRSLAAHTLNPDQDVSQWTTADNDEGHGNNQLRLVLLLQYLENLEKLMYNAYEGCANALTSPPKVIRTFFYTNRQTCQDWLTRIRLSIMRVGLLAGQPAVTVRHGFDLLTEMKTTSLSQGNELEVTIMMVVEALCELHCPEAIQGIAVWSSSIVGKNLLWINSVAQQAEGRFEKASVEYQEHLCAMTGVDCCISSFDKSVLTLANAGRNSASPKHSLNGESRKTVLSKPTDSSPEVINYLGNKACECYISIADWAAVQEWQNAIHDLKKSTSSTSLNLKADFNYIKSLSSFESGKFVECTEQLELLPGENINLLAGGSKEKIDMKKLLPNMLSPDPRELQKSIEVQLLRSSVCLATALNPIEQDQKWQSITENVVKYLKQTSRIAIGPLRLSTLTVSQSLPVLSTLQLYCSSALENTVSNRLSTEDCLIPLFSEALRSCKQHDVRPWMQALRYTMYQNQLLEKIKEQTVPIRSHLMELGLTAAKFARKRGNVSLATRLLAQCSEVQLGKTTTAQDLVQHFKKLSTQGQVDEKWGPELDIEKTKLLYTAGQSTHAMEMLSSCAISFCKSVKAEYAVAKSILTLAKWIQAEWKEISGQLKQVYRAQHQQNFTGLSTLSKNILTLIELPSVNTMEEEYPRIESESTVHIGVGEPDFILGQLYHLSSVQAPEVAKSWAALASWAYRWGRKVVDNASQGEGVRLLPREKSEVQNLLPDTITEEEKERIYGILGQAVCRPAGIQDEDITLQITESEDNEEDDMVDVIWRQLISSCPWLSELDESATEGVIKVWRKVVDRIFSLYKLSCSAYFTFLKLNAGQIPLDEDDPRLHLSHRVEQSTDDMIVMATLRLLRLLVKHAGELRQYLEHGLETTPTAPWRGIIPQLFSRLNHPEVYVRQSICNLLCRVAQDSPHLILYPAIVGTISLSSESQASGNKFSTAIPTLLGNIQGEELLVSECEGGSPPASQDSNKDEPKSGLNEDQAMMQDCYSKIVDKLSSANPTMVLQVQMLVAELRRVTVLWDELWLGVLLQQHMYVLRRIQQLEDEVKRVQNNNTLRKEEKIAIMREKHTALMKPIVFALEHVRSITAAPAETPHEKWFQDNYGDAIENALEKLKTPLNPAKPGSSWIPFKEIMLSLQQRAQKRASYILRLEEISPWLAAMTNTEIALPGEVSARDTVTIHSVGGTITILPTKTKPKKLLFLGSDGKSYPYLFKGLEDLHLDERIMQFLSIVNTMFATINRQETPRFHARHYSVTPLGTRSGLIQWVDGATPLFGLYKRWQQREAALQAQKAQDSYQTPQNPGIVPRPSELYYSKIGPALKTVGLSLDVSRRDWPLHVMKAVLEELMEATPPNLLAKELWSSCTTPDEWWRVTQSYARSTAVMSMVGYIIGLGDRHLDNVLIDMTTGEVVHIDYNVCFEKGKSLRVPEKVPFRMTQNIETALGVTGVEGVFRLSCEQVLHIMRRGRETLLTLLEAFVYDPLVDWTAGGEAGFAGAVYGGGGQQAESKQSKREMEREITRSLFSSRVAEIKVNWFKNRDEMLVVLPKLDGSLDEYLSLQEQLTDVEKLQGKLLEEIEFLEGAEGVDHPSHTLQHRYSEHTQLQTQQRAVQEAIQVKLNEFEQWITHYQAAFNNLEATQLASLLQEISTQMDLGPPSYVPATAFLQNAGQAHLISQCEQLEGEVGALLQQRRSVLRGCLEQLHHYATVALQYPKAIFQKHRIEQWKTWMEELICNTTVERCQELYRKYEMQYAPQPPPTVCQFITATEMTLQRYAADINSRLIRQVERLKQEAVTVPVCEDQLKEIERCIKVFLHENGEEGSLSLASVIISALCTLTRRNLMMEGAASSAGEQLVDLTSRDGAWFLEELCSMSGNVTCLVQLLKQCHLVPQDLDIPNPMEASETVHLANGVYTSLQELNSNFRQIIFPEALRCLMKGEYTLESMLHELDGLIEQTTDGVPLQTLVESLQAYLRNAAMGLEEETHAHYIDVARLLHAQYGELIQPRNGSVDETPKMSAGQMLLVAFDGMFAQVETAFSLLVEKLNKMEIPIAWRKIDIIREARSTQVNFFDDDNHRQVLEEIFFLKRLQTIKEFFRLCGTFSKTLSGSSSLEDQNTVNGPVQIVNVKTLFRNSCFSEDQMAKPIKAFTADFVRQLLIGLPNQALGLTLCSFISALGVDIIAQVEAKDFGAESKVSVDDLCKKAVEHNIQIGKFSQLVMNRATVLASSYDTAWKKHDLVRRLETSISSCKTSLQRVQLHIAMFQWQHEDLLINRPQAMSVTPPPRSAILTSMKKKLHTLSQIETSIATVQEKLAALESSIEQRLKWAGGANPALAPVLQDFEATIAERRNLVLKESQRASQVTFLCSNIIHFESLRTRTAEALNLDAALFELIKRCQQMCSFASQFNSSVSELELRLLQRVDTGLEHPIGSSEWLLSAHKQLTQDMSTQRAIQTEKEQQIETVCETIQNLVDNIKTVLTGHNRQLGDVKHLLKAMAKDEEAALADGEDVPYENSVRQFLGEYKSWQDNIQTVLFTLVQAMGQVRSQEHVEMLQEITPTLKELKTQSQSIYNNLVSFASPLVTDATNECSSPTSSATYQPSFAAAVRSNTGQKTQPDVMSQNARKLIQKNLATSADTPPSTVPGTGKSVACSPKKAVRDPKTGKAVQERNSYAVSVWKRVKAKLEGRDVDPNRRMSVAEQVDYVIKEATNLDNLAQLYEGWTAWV

Assay [1] addresses FLAG-SMG1 (pCMV6-SMG1-MYC-FLAG) (UniProt Q96Q15). The experiment in a line: co-IP; sequential: FLAG-SMG1, MYC-UPF1 and T7-DHX34 co-expressed in HEK293T; anti-FLAG IP, FLAG peptide elution, then anti-T7 agarose IP.
Assay [2] concerns the target T1, T7-DHX34 full-length (human) (UniProt Q14147).
T1 sequence: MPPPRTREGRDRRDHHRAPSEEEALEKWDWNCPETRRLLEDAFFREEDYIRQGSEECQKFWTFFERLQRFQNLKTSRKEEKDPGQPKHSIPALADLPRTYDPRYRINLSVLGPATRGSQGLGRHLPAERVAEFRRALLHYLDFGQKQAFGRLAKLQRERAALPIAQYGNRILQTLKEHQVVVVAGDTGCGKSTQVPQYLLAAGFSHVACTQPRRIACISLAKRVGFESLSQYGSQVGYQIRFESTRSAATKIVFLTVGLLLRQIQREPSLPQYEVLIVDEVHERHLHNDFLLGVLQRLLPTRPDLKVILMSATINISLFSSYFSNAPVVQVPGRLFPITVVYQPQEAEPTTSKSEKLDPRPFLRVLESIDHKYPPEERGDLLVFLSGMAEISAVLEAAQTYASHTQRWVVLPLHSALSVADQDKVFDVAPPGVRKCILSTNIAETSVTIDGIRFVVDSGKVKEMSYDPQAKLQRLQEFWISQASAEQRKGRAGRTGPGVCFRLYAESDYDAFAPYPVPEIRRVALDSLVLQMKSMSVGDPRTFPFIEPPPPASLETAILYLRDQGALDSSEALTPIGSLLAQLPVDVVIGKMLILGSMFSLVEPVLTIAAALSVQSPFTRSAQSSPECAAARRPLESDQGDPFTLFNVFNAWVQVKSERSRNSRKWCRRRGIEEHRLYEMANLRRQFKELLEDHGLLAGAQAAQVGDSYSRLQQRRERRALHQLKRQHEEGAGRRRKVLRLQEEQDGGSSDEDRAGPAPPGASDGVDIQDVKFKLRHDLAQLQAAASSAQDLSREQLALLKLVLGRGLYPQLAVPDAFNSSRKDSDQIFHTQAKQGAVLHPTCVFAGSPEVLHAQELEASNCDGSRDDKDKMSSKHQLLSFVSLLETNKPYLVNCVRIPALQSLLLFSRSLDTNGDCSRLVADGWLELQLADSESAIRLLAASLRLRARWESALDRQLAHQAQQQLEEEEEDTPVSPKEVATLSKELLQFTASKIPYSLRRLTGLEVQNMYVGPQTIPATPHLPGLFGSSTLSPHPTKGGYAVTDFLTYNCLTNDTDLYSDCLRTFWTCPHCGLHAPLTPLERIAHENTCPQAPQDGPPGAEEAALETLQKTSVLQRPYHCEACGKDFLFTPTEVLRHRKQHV
Described as above.

These are yes or no findings as the source states them, for the method shown. Binding seen in cells or lysates may run through a third protein. Some entries that bind do so weakly or less than the wild type. Where a sequence is shown, tags or fusion partners need not be part of it.

B1: MYC-UPF1 (enzyme, UniProt Q92900 1-1129)
chain: MSVEAYGPSSQTLTFLDTEEAELLGADTQGSEFEFTDFTLPSQTQTPPGGPGGPGGGGAGGPGGAGAGAAAGQLDAQVGPEGILQNGAVDDSVAKTSQLLAELNFEEDEEDTYYTKDLPIHACSYCGIHDPACVVYCNTSKKWFCNGRGNTSGSHIVNHLVRAKCKEVTLHKDGPLGETVLECYNCGCRNVFLLGFIPAKADSVVVLLCRQPCASQSSLKDINWDSSQWQPLIQDRCFLSWLVKIPSEQEQLRARQITAQQINKLEELWKENPSATLEDLEKPGVDEEPQHVLLRYEDAYQYQNIFGPLVKLEADYDKKLKESQTQDNITVRWDLGLNKKRIAYFTLPKTDSGNEDLVIIWLRDMRLMQGDEICLRYKGDLAPLWKGIGHVIKVPDNYGDEIAIELRSSVGAPVEVTHNFQVDFVWKSTSFDRMQSALKTFAVDETSVSGYIYHKLLGHEVEDVIIKCQLPKRFTAQGLPDLNHSQVYAVKTVLQRPLSLIQGPPGTGKTVTSATIVYHLARQGNGPVLVCAPSNIAVDQLTEKIHQTGLKVVRLCAKSREAIDSPVSFLALHNQIRNMDSMPELQKLQQLKDETGELSSADEKRYRALKRTAERELLMNADVICCTCVGAGDPRLAKMQFRSILIDESTQATEPECMVPVVLGAKQLILVGDHCQLGPVVMCKKAAKAGLSQSLFERLVVLGIRPIRLQVQYRMHPALSAFPSNIFYEGSLQNGVTAADRVKKGFDFQWPQPDKPMFFYVTQGQEEIASSGTSYLNRTEAANVEKITTKLLKAGAKPDQIGIITPYEGQRSYLVQYMQFSGSLHTKLYQEVEIASVDAFQGREKDFIILSCVRANEHQGIGFLNDPRRLNVALTRARYGVIIVGNPKALSKQPLWNHLLNYYKEQKVLVEGPLNNLRESLMQFSKPRKLVNTINPGARFMTTAMYDAREAIIPGSVYDRSSQGRPSSMYFQTHDQIGMISAGPSHVAAMNIPIPFNLVMPPMPPPGYFGQANGPAAGRGTPKGKTGRGGRQKNRFGLPGPSQTNLPNSQASQDVASQPFSQGALTQGYISMSQPSQMSQPGLSQPELSQDSYLGDEFKSQIDVALSQDSTYQGERAYQHGGVTGLSQY
As to B1, the binding entry in assay [1] and in assay [2] was “binds” in each case.
